Assay results taken from paper PMC8576121.

Key:
Test in all cases: affinity purification with mass spectrometry; N-His6 bait overproduced in H. volcanii; cytoplasmic extract on nickel chelating sepharose at room temperature in 2.1 M NaCl, 20 mM HEPES, 20 mM imidazole; four washes with 30 mM imidazole, elution with 700 mM imidazole; no RNase step, no cross-linking; co-isolated proteins identified by LC-MS/MS; three biological replicates; proteins found in the empty-vector or DHFR controls removed
[1] = molecular target: T1, DNA-directed RNA polymerase subunit Rpo11 (Haloferax volcanii) (UniProt D4GVL8)
T1 sequence: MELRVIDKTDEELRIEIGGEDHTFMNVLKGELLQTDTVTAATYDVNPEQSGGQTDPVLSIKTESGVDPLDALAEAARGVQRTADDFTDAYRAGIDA

[2] = molecular target: T2, DNA-directed RNA polymerase subunit Rpo1C (Haloferax volcanii) (UniProt D4GZX7)
T2 sequence: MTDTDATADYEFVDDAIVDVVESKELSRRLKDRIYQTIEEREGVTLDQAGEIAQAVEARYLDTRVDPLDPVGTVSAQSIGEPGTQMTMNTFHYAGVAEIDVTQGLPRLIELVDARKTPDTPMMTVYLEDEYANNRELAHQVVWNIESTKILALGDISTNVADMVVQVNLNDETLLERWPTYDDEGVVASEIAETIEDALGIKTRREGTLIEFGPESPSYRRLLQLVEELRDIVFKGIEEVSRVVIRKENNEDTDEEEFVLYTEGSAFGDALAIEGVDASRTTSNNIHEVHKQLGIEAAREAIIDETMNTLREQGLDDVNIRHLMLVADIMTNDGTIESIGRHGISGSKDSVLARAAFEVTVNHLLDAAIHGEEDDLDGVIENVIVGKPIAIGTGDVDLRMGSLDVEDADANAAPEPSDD

[3] = molecular target: T3, DNA-directed RNA polymerase subunit Rpo1N (Haloferax volcanii) (UniProt D4GZX6)
T3 sequence: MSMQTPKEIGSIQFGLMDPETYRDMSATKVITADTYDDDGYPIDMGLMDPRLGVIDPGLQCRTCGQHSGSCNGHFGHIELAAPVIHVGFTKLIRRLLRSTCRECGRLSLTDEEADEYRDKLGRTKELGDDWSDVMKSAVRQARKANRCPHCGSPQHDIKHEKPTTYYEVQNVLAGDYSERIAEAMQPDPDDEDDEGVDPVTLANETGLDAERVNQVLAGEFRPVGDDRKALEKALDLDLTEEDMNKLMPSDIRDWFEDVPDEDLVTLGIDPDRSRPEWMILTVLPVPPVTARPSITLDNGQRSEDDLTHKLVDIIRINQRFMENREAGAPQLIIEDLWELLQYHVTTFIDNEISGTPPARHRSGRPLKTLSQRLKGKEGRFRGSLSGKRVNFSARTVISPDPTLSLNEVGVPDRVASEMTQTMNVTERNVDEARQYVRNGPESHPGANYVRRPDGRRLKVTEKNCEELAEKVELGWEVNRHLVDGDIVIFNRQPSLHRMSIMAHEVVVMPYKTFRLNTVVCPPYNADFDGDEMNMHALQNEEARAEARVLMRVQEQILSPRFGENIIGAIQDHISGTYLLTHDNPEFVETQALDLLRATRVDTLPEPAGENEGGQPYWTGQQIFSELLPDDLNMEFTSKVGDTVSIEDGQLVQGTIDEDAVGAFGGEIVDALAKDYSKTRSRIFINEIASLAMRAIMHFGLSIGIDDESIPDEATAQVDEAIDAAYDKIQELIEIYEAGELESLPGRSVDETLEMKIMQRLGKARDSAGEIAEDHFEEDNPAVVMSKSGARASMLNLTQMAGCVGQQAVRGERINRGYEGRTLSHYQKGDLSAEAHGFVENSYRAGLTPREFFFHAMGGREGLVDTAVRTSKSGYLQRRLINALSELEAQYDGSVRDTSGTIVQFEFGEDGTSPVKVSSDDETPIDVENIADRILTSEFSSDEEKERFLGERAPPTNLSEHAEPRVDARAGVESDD

[4] = molecular target: T4, DNA-directed RNA polymerase subunit Rpo2N (Haloferax volcanii) (UniProt D4GZX4)
T4 sequence: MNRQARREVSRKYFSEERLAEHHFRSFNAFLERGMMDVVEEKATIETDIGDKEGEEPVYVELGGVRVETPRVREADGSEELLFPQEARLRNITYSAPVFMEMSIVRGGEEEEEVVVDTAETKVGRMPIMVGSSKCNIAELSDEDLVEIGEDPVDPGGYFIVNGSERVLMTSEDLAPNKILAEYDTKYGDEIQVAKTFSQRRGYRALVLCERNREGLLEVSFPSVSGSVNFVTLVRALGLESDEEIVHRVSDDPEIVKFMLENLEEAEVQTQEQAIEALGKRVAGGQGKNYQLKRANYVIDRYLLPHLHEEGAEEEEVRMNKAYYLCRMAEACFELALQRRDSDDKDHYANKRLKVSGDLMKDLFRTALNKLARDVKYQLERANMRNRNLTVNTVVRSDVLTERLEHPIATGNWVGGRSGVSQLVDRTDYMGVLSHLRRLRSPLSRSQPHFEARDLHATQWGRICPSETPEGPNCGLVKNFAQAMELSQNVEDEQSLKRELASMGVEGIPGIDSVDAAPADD

[5] = molecular target: T5, DNA-directed RNA polymerase subunit Rpo3 (Haloferax volcanii) (UniProt D4GWY4)
T5 sequence: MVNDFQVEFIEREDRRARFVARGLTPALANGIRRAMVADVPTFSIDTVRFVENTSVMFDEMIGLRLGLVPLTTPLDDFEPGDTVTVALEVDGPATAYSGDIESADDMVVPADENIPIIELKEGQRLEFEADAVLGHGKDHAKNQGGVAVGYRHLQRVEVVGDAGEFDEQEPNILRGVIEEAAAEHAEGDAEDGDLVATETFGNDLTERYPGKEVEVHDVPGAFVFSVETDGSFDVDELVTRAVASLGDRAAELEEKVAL

[6] = molecular target: T6, DNA-directed RNA polymerase subunit Rpo5 (Haloferax volcanii) (UniProt D4GZX3)
T6 sequence: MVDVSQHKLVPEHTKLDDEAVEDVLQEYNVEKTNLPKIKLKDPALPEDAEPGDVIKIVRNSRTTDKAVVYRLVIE

[7] = molecular target: T7, translation initiation factor aIF2 alpha subunit (Haloferax volcanii) (UniProt D4GT46)
T7 sequence: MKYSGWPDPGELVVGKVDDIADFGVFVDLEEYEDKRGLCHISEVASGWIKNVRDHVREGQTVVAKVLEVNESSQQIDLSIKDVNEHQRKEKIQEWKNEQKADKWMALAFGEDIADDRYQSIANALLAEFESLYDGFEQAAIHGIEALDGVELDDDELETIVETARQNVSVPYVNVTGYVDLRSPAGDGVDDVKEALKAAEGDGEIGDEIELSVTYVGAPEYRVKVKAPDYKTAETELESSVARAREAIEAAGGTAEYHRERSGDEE

[8] = molecular target: T8, translation initiation factor aIF2 beta subunit / probable RNA-binding protein (aIF2β-2) (Haloferax volcanii) (UniProt D4GVV8)
T8 sequence: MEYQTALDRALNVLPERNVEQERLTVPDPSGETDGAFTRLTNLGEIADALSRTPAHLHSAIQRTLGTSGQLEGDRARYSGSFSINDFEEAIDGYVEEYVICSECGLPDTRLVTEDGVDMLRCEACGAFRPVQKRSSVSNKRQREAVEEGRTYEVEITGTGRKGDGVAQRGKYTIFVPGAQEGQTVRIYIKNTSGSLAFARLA

binding [1]: binds | binding [2]: binds | binding [3]: binds | binding [4]: binds | binding [5]: binds
B1: DNA-directed RNA polymerase subunit Rpo5 (protein, UniProt D4GZX3 1-75)
chain: T6 sequence

binding [7]: binds | binding [8]: binds
B3: translation initiation factor aIF2 gamma subunit (protein, UniProt D4GTD4 1-411)
chain: MVTKNPQQPEVNIGLVGHVDHGKTTLVQALSGSWTDQHSEEMKRGISIRLGYADATFRQIPGVDAPECYTVEEETEDGEETDVLRTVSFVDAPGHETLMATMLSGAAIMDGAILLVSATEDVPQAQTAEHLMALDIIGIENIVIAQNKVDLVDRERAVDNYEQIQEFVEGTVAEDAPIVPISAQQEVNLDLLIEAIEEEIPTPDRDETEDSQMYVARSFDINRPGTTWDGLAGGVIGGSVVAGKLEAGDELELRPGREVDEEGQTEWRSITTEIRSLQAGGNMVDEVRPGGLCGVGTGLDPSFTKGDALAGQVAGEPGTLPPTREQFTMDVELLDRVVGDEEGEGIDEISTGEPLMLTVGTATTVGAVTSARSGEAEVSLKRPVCAEEGAKIAINRRVGARWRLIGIGTLK

binding [1]: no binding | binding [2]: no binding | binding [3]: no binding | binding [4]: no binding | binding [5]: no binding | binding [6]: no binding
B5: RNA polymerase auxiliary subunit RpoK (protein, UniProt D4GWX4 1-58)
chain: MMQRYNRYEKARILGARALQVSYGAPVLVDSEQTEPILIAAEEYDAGVLPFTVKREGK

More lines, now with the values behind:

B2: DNA-directed RNA polymerase subunit Rpo2N (protein, UniProt D4GZX4 1-521)
chain: T4 sequence
binding [1]: binds | binding [2]: binds | binding [3]: binds | binding [5]: binds | binding [6]: binds

B4: translation initiation factor aIF2 beta subunit (aIF2β-1) (protein, UniProt D4GZP2 1-135)
chain: MDYDDQLDRALSASPDVAEGDDRFSVPEPTVRQEGNVTVYENFAATHDRLAREATHVLKFFQTELGTSAQIDDRGRARFTGEFRQRRIADALDEYVESFVLCSECGSPDTKLTSQRGADVLKCDACGALSAIPDL
binding [8]: no binding

These are yes or no findings as the source states them, for the method shown. In cells and extracts the contact can be indirect. A yes stands for co-enrichment or nearness to the bait. Other partners may have been found. For some of these results: A no says only that the protein was not detected with the bait. One block for each binder: values may come before it.
